Laboratory results published in PMC4877669.
Positions count from the first letter of the chain named. Results are given in words; binding and its absence hold for the method and conditions named. In cells and extracts the contact can be indirect. Some binding calls cover weakened binding; strength is not graded here. Where a sequence is shown, tags or fusion partners need not be part of it.

Experiments:
Assay in all cases: pull-down; GST fusion proteins or GST immobilized on glutathione-sepharose beads, incubated with total lysates of HEK293 cells expressing dynamin 2-GFP or GFP-Triad3A 1 h at 4°C; washes with lysis buffer with 1% Triton X-100; immunoblot with anti-GFP; only the target purified
GST-Arc(W197A) (mouse) = molecular target: T1, GST-Arc(W197A) (mouse) (UniProt Q9WV31)
T1 sequence: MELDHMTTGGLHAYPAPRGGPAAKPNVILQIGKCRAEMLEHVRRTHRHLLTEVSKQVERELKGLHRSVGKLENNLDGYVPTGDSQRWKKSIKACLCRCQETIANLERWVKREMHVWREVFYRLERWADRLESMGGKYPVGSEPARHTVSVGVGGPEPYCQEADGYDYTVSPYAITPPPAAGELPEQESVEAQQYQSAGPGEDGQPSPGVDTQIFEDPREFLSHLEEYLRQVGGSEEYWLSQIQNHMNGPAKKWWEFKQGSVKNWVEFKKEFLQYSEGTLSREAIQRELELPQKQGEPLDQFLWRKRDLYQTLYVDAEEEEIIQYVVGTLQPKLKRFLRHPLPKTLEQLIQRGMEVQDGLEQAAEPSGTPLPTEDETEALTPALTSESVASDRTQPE

[1] = molecular target: T2, GST-Arc(195-199A) (mouse) (UniProt Q9WV31)
T2 sequence: T1 sequence with Q195A, S196A, G198A, P199A

GST-Arc(WT) (mouse) = molecular target: T3, GST-Arc(WT) (mouse) (UniProt Q9WV31)
T3 sequence: T1 sequence with A197W

binding (GST-Arc(W197A) (mouse)): binds
binding [1]: binds
binding (GST-Arc(WT) (mouse)): binds
Substance: GFP-Triad3A (from UniProt Q9NWF9-2 1-866)
